Two molecules from patent US20080311599A1 can be followed below.

For the test, the target named is active caspase-8 (human). The test is described as follows: co-immunoprecipitation with mAb 179 from BJAB lysates, time course of Fas-ligand stimulation, Silver staining.

These are yes or no findings as the source states them, for the method shown. Binding seen in cells or lysates may run through a third protein.

B1: p72 (protein)
chain: MSLKMDNRDVAGKANRWFGVAPPKSGKMNMNILHQEELIAQKKREIEAKMEQKAKQNQVASPQPPHPGEITNAHNSSCISNKFANDGSFLQQFLKLQKAQTSTDAPTSAPSAPPSTPTPSAGKRSLLISRRTGLGLASLPGPVKSYSHAKQLPVAHRPSVFQSPDEDEEEDYEQWLEIKVSPPEGAETRKVIEKLARFVAEGGPELEKVAMEDYKDNPAFAFLHDKNSREFLYYRKKVAEIRKEAQKSQAASQKVSPPEDEEVKNLAEKLARFIADGGPEVETIALQNNRENQAFSFLYEPNSQGYKYYRQKLEEFRKAKASSTGSFTAPDPGLKRKSPPEALSGSLPPATTCPASSTPAPTIIPAPAAPGKPASAATVKRKRKSRWGPEEDKVELLPAELVQRDVDASPSPLSVQDLKGLGYEKGKPVGLVGVTELSDAQKKQLKEQQEMQQMYDMIMQHKRAMQDMQLLWEKAVQQHQHGYDSDEEVDSELGTWEHQLRRMEMDKTREWAEQLTKMGRGKHFIGDFLPPDELEKFMETFKALKEGREPDYSEYKEFKLTVENIGYQMLMKMGWKEGEGLGSEGQGIKNPVNKGTTTVDGAGFGIDRPAELSKEDDEYEAFRKRMMLAYRFRPNPLNNPRRPYY
In the case of B1, the binding entry is “no binding”.

B2: 68 kDa fragment of p72 (protein)
chain: MSLKMDNRDVAGKANRWFGVAPPKSGKMNMNILHQEELIAQKKREIEAKMEQKAKQNQVASPQPPHPGEITNAHNSSCISNKFANDGSFLQQFLKLQKAQTSTDAPTSAPSAPPSTPTPSAGKRSLLISRRTGLGLASLPGPVKSYSHAKQLPVAHRPSVFQSPDEDEEEDYEQWLEIKVSPPEGAETRKVIEKLARFVAEGGPELEKVAMEDYKDNPAFAFLHDKNSREFLYYRKKVAEIRKEAQKSQAASQKVSPPEDEEVKNLAEKLARFIADGGPEVETIALQNNRENQAFSFLYEPNSQGYKYYRQKLEEFRKAKASSTGSFTAPDPGLKRKSPPEALSGSLPPATTCPASSTPAPTIIPAPAAPGKPASAATVKRKRKSRWGPEEDKVELLPAELVQRDVDASPSPLSVQDLKGLGYEKGKPVGLVGVTELSDAQKKQLKEQQEMQQMYDMIMQHKRAMQDMQLLWEKAVQQHQHGYDSDEEVDSELGTWEHQLRRMEMDKTREWAEQLTKMGRGKHFIGDFLPPDELEKFMETFKALKEGREPDYSEYKEFKLTVENIGYQMLMKMGWKEGEGLGSEGQGIKNPVNKGTTTVD
With B2, the binding entry is “no binding”.
